Publication PMC3185932, “A truncated form of CD9-partner 1 (CD9P-1), GS-168AT2, potently inhibits in vivo tumour-induced angiogenesis and tumour growth” (British Journal of Cancer, 2011)
Results are given in words; binding and its absence hold for the method and conditions named. In cells and extracts the contact can be indirect. Some results given as binding are weak or reduced against the parent protein; the word gives no strength.

Amino acid sequences for entries named in this document (tags omitted).
UniProt P05556: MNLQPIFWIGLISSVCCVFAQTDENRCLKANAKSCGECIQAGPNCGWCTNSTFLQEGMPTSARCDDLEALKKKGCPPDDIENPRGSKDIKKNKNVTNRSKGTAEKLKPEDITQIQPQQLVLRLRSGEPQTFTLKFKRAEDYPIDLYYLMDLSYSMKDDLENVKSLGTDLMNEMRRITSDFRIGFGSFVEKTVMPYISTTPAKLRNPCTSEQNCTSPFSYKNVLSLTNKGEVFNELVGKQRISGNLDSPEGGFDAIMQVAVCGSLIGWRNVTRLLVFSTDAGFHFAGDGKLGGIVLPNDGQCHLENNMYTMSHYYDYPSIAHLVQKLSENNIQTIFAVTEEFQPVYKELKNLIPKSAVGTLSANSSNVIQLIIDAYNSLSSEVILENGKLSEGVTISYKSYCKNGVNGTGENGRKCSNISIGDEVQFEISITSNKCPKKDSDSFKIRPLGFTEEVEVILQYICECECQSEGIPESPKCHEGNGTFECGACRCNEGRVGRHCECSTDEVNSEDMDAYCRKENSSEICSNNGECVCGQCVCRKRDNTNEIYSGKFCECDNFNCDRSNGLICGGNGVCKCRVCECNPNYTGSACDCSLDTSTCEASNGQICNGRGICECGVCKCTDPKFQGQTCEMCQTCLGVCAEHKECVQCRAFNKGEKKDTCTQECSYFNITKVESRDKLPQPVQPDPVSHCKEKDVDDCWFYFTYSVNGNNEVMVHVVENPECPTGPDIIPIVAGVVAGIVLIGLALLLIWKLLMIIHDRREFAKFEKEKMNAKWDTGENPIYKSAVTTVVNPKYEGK

How the values were obtained:
Test in all cases: co-IP; hEC incubated with purified GS-168AT2 (40 μg ml^–1) or vehicle for 2 h, washed, lysed in 1% Brij 97 lysis buffer (10 mM Tris pH 7.5, 150 mM NaCl, 1 mM CaCl2, 1 mM MgCl2); CD9, CD81, CD151 or integrin β1 immunoprecipitated with their mAbs and protein G agarose at 4 °C; blot with 229T mAb against GS-168AT2; only the binder purified
[1] = molecular target: T1, CD81 (human (endogenous in hEC)) (UniProt P60033)
T1 sequence: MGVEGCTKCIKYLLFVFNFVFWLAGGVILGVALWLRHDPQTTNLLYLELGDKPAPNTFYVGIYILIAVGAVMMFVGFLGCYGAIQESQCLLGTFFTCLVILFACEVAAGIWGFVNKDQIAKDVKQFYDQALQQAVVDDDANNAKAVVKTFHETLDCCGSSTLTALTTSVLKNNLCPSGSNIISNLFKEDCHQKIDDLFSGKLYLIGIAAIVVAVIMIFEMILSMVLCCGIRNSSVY

[2] = molecular target: T2, CD151 (human (endogenous in hEC)) (UniProt P48509)
T2 sequence: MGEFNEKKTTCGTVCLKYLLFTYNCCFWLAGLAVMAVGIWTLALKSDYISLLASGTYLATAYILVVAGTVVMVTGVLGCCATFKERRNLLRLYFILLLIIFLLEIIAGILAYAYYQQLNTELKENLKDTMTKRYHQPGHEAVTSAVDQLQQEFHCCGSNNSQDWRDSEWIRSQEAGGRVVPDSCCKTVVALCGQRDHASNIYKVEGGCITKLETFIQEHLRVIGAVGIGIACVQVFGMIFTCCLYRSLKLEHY

[3] = molecular target: β1 integrins (human (endogenous in hEC)) (UniProt P05556)

B1: GS-168AT2, truncated form of CD9 partner-1 (CD9P-1), amino acid 724-832 (domain or fragment, human, UniProt Q9P2B2 724-832, looked up)
chain: DMAFDVSWFAVHSFGLDKAPVLLSSLDRKGIVTTSRRDWKSDLSLERVSVLEFLLQVHGSEDQDFGNYYCSVTPWVKSPTGSWQKEAEIHSKPVFITVKMDVLNAFKYP
notes: CD9 partner-1 (CD9P-1/FPRP/EWI-F), human, amino acid 724-832: the unglycosylated extracellular portion next to the transmembrane domain; cDNA from RNA of human endothelial cells; no removal of the tag is described. pET-30 EK/LIC is known to add His and S tags at the N-terminus (surmised); also called truncated CD9P-1; source: E. coli BL21(DE3)pLys, purified from the insoluble fraction in urea …
Question: With B1 as the binder, how does the binding [1] read?
Answer: Its binding is “binds weakly”.

Question: And the binding [2]?
Answer: Its binding is “binds”.

Question: What about the binding [3] of the same binder?
Answer: Its binding is “no binding (tested: 40 μg ml^–1)”.
